Values quoted from earlier work, collected in patent US10722519B2, “Aerosol fluoroquinolone formulations for improved pharmacokinetics” (priority 2008, dated 2020).
At least one structure is not confirmed: it was looked up by name or label, or the drawing left a doubt.

System: P. aeruginosa
Conditions: P. aeruginosa CF isolates, Traczewski and Brown (2006); cited from earlier work

SMILES: C[C@H]1COc2c(N3CCN(C)CC3)c(F)cc3c(=O)c(C(=O)O)cn1c23 [Levofloxacin, levofloxacin]
- MIC50: 1 (MIC50) mg/L
- MIC90: 16 (MIC90) mg/L
- mode MIC: 0.5 (mode) mg/L
